The list shows only some results of the screen, not a fair sample: it gathers tests that were run many times, whatever their T/C, doses with no T/C, and many T/C values between a quarter and a half above the control. Other doses and runs of a compound stand elsewhere. T/C gives the treated animals as a percentage of the vehicle group. Some doses have a count of surviving animals in place of a T/C: the source holds a T/C of zero for them, seemingly a mark for toxic or unscored doses. Some survivor counts are full or nearly so, which does not show that the dose was tolerated: survival well below the control is almost never listed, so the zero probably covers shortened survival too. Counts of survivors are from the toxicity check (mostly the fifth day) where no day follows; animals may have died later. Schedule codes are those of the source, taken here to give the interval after Q, in days (D) or hours (H), and the number of doses after X. Some entries hold several experiments; their values stand side by side, smallest first. Where survival is the endpoint, this PubChem deposit counts one and a half times the control or more as active, and values a quarter to a half above the control carry no call in these data; other NCI protocols may use other cut-offs. Some T/C values are followed by the survivors on the day toxicity was checked, most often the fifth; where none is given, no animal had died by that day. Square brackets hold non-standard residues; d marks the D form. Peptide text beside a SMILES is read from it. * marks the point of attachment. ξ: configuration not given here. Cbz = O=C(OCc1ccccc1)*; ξK = NCCCCC(N)C(=O)O
System: BDF1 mice, B16 melanoma ip, median survival T/C
Assay: NCI In Vivo Anticancer Drug Screen. Data for tumor model B16 Melanoma (intraperitoneal) in B6D2F1 (BDF1) mice
Details: T/C endpoint: median survival time, higher T/C = longer survival
Protocol: The antitumor activity of compounds was measured in mice bearing transplantable tumors. Survival or tumor size were measured and the results are expressed as the measurement made in the treated group (T) divided by the measurement made in the vehicle treated control group (C). The tumor model used in this assay is B16 Melanoma (intraperitoneal) in B6D2F1 (BDF1) mice

[1] = dose: 50.0 mg/kg/injection, schedule: Q01DX009 (ip), vehicle: saline
[2] = dose: 100.0 mg/kg/injection, schedule: Q01DX009 (ip), vehicle: saline
[3] = dose: 200.0 mg/kg/injection, schedule: Q01DX009 (ip), vehicle: saline
[4] = dose: 400.0 mg/kg/injection, schedule: Q01DX009 (ip), vehicle: saline
[5] = dose: 50.0 mg/kg/injection, schedule: Q04DX003 (ip), vehicle: Klucel (hydroxypropylcellulose) (HPC)
[6] = dose: 100.0 mg/kg/injection, schedule: Q01DX009 (ip), vehicle: saline with Tween-80
[7] = dose: 200.0 mg/kg/injection, schedule: Q01DX009 (ip), vehicle: saline with Tween-80
[8] = dose: 400.0 mg/kg/injection, schedule: Q01DX009 (ip), vehicle: saline with Tween-80
[9] = dose: 100.0 mg/kg/injection, schedule: Q01DX009 (ip), vehicle: Klucel (hydroxypropylcellulose) (HPC)
[10] = dose: 12.5 mg/kg/injection, schedule: Q01DX009 (ip), vehicle: saline with Tween-80
[11] = dose: 25.0 mg/kg/injection, schedule: Q01DX009 (ip), vehicle: saline with Tween-80
[12] = dose: 200.0 mg/kg/injection, schedule: Q01DX009 (ip), vehicle: Klucel (hydroxypropylcellulose) (HPC)
[13] = dose: 0.75 mg/kg/injection, schedule: Q01DX009 (ip), vehicle: saline with Tween-80
[14] = dose: 25.0 mg/kg/injection, schedule: Q01DX009 (ip), vehicle: saline

CNCCCC1c2ccccc2C=Cc2ccccc21
survivor count [1]: 5 of 10
survivor count [2]: 0 of 10
survivor count [3]: 0 of 10
survivor count [4]: 0 of 10

CC1CN1C(=O)NCCCCCCNC(=O)N1CC1C (configuration not stated)
T/C (dose: 1.25 mg/kg/injection, schedule: Q01DX009 (ip), vehicle: Klucel (hydroxypropylcellulose) (HPC)): 132 % of control
T/C (dose: 2.5 mg/kg/injection, schedule: Q01DX009 (ip), vehicle: Klucel (hydroxypropylcellulose) (HPC)): 138 and 144 % of control [7 of 10 alive]
survivor count (dose: 5.0 mg/kg/injection, schedule: Q01DX009 (ip), vehicle: Klucel (hydroxypropylcellulose) (HPC)): 8 of 10
survivor count (dose: 10.0 mg/kg/injection, schedule: Q01DX009 (ip), vehicle: Klucel (hydroxypropylcellulose) (HPC)): 10 of 10
survivor count (dose: 10.0 mg/kg/injection, schedule: Q01DX009 (ip), vehicle: saline): 10 of 10
survivor count (dose: 20.0 mg/kg/injection, schedule: Q01DX009 (ip), vehicle: Klucel (hydroxypropylcellulose) (HPC)): 10 of 10

CC(C)C1(C(=O)NNC(=O)CCCc2ccc(N(CCCl)CCCl)cc2)OC2(O)CCCCCN2C1=O (configuration not stated)
survivor count (dose: 6.25 mg/kg/injection, schedule: Q01DX009 (ip), vehicle: DMSO): 8 of 8
survivor count (dose: 25.0 mg/kg/injection, schedule: Q01DX009 (ip), vehicle: DMSO): 10 of 10
T/C (dose: 25.0 mg/kg/injection, schedule: Q04DX003 (ip), vehicle: Klucel (hydroxypropylcellulose) (HPC)): 133 % of control
survivor count (dose: 50.0 mg/kg/injection, schedule: Q01DX009 (ip), vehicle: DMSO): 0 of 10
T/C [5]: 133 % of control
survivor count (dose: 100.0 mg/kg/injection, schedule: Q01DX009 (ip), vehicle: DMSO): 0 of 10

COC(=O)Nc1ccc(Cc2ccc(NC(=O)OC)cc2)cc1
T/C [6]: 130 % of control
T/C [7]: 146 % of control

O=C1N=C(Oc2ccccc2)SC1=O
survivor count (dose: 50.0 mg/kg/injection, schedule: Q01DX009 (ip), vehicle: saline with Tween-80): 10 of 10
survivor count [6]: 8 of 10
survivor count [7]: 4 of 10
survivor count [8]: 0 of 10

CNc1ccc(/C=C2\C=Cc3ccccc32)cc1
survivor count [9]: 10 of 10

NCC(=O)NC(CCCCNC(=O)OCc1ccccc1)C(=O)O (configuration not stated) (H-Gly-[ξK](Cbz)-OH)
survivor count [10]: 2 of 10
survivor count [11]: 0 of 10

CCC(C)C(C(=O)OCCN(CC)CC)c1ccccc1 (configuration not stated)
survivor count [9]: 9 of 10
survivor count [12]: 3 of 10

COc1cc2c(c(OC)c1OC)-c1ccc(OC)c(=O)cc1[C@@H](NC(=O)CF)CC2
T/C (dose: 0.18 mg/kg/injection, schedule: Q01DX009 (ip), vehicle: saline with Tween-80): 134 % of control
survivor count (dose: 0.37 mg/kg/injection, schedule: Q01DX009 (ip), vehicle: saline with Tween-80): 7 of 10
survivor count [13]: 0 of 10

COc1ccc2c(c1OC(C)=O)-c1cc(OC(C)=O)cc3c1C(C2)N(C(=O)CN(CCCl)CCCl)CC3 (configuration not stated)
T/C (dose: 12.5 mg/kg/injection, schedule: Q04DX003 (ip), vehicle: DMSO): 140 % of control
survivor count (dose: 50.0 mg/kg/injection, schedule: Q04DX003 (ip), vehicle: DMSO): 10 of 10
survivor count (dose: 100.0 mg/kg/injection, schedule: Q04DX003 (ip), vehicle: DMSO): 7 of 10

CCOC1=C(N2CC2)C(=O)C(OCC)=C(N2CC2)C1=O
T/C (dose: 1.0 mg/kg/injection, schedule: Q01DX009 (ip), vehicle: saline): 136 % of control
survivor count (dose: 4.0 mg/kg/injection, schedule: Q01DX009 (ip), vehicle: saline): 9 of 10

CC(C)(C)OC(=O)NC(CCC(=O)OCc1ccccc1)C(=O)ON1C(=O)CCC1=O (configuration not stated)
survivor count [7]: 10 of 10
survivor count [8]: 10 of 10

CCSC(=O)N1c2ccc(OC)cc2C=CC1C#N (configuration not stated)
T/C [7]: 125 % of control
T/C [8]: 129 % of control

O=C(O)C1Cc2c([nH]c3ccccc23)C(CCCCO)N1 (configuration not stated)
survivor count (dose: 50.0 mg/kg/injection, schedule: Q01DX009 (ip), vehicle: Klucel (hydroxypropylcellulose) (HPC)): 10 of 10

CCCCCCCCCCCCCCP(I)(N(C)C)(N(C)C)N(C)C
survivor count [13]: 10 of 10
survivor count (dose: 1.5 mg/kg/injection, schedule: Q01DX009 (ip), vehicle: saline with Tween-80): 0 of 10
survivor count (dose: 3.0 mg/kg/injection, schedule: Q01DX009 (ip), vehicle: saline with Tween-80): 5 of 10

CCc1ccc2c(c1)N(CCCN(CCCl)CCCl)c1ccccc1S2
T/C [10]: 141 % of control
survivor count [10]: 8 of 10
survivor count [11]: 4 of 10 and 5 of 10

CC(=O)O[C@@]1(C)[C@@H](C)C(=O)O[C@@H]2CCN3CC=C(COC(=O)[C@]1(C)O)[C@H]23
T/C [14]: 133 % of control

CC1(C)N=C(N)N=C(N)N1c1ccc(CCC(=O)Nc2ccc(S(=O)(=O)F)cc2)cc1
T/C [1]: 138 % of control
survivor count [2]: 6 of 6
survivor count [3]: 5 of 6
survivor count [4]: 6 of 6

CCCCCCCCCCCCCCCC(=O)N(CCC#N)CCCCCCCCCN(CCC#N)C(=O)CCCCCCCCCCCCCCC
survivor count [5]: 10 of 10

C=C(C)/C([O-])=N/[N+](C)(C)CC(O)CCCCCCCCCCCC (configuration not stated)
survivor count (dose: 100.0 mg/kg/injection, schedule: Q01DX001 (ip), vehicle: saline): 10 of 10
survivor count (dose: 200.0 mg/kg/injection, schedule: Q01DX001 (ip), vehicle: saline): 10 of 10
survivor count (dose: 400.0 mg/kg/injection, schedule: Q01DX001 (ip), vehicle: saline): 3 of 10
survivor count (dose: 800.0 mg/kg/injection, schedule: Q01DX001 (ip), vehicle: saline): 0 of 10

CCCCC[C@H](CN(C)C)[C@H](O)/C=C/c1ccc(Cl)cc1
survivor count [1]: 9 of 10

Cc1cccc(C)c1NC(=O)c1ccccc1
survivor count (dose: 12.5 mg/kg/injection, schedule: Q01DX009 (ip), vehicle: Klucel (hydroxypropylcellulose) (HPC)): 10 of 10
survivor count [14]: 10 of 10
survivor count [9]: 10 of 10
survivor count [12]: 10 of 10
survivor count (dose: 400.0 mg/kg/injection, schedule: Q01DX009 (ip), vehicle: Klucel (hydroxypropylcellulose) (HPC)): 10 of 10

Clc1ccc2c(c1)/C(=C/c1ccc3c(c1)OCO3)c1cc(Cl)cc(Cl)c1-2
survivor count [1]: 6 of 6
survivor count [2]: 6 of 6
survivor count [3]: 6 of 6
survivor count [4]: 6 of 6

C1=Cc2ccccc2/C1=C/c1cccc(/C=C2\C=Cc3ccccc32)c1
survivor count [11]: 10 of 10
